The whole screen tested about 320,000 compounds, of which about 2,100 (0.66%) were called active. Inconclusive results, whose numbers are uncertain, are shown with a selection of clear calls. The call rests on the fitted dose curve; in most records, active means well fitted inhibition curve with a large enough effect in the signal ratio, with a control signal flat (not every such curve was filed as active); inconclusive means small, poorly fitted or top-dose-only effect, or effect the other way, or a change in a side signal; inactive means flat fitted curve, though single readings scatter; the % refers to the signal ratio. Potencies beside an inconclusive call are fits to weak or partial responses and may not hold up.
assay: qHTS Assay for Lipid Storage Modulators in Drosophila S3 Cells; settings: BODIPY lipid droplet fluorescence, 18-24 h, cells fed with added oleic acid; lipid storage change, negative = inhibition: at 46.1 µM (top of the series) unless noted
Method in brief: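 Laser-scanning cytometry quantifies lipid droplet accumulation (500–530 nm total intensity; droplet/cell object ratio) in oleic acid-fed (400 uM added) Drosophila S3 cells treated with a concentration series. 20 uM Triacsin C defined 100% inhibition.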
On the % scale 0 is the no-effect control and ±100 the full control effect; potency means the concentration at half of the fitted maximal effect.

Structure (SMILES)	Potency	lipid storage change, negative = inhibition
Cc1ccc(C(=O)NC2CCCC2)s1	inconclusive: 0.0052 µM [activator, full curve, poor fit]	
COc1ccc(N2CCN(S(=O)(=O)CCNC(=O)C3CCCCC3)CC2)cc1		inconclusive: -13.7%
CCC(CC)C(=O)Nc1cc(NC(=O)C(CC)CC)cc(C(=O)O)c1	inconclusive: 18.4 µM [cytotoxic, partial curve]	
CC1(C)Cc2c(C#N)c(OCC(=O)c3ccc(Cl)cc3)nc(-c3ccoc3)c2CO1		inconclusive: 11.6%
CC(C)N(Cc1cc2ccccc2[nH]c1=O)C(=O)c1cccc([N+](=O)[O-])c1		inconclusive: -24%
O=c1c(Cc2c(F)cccc2Cl)c(O)ccn1CCCN1CCOCC1		inconclusive: -2.4%
NC(=O)C1CCN(c2ccc(S(=O)(=O)N3CCCCC3)cn2)CC1	inconclusive: 29.1 µM [rising, single point]	
CCOC(=O)CNC(=O)CSc1nc(N(C)C)nc(N2CCOCC2)n1		inconclusive: 5.3%
COc1ccc(C)cc1NC(=O)CSc1nnc(COc2ccc(Cl)cc2)n1Cc1ccco1		inconclusive: -20.3%
O=C(Nc1cccnc1)c1ccc(Cl)c(Cl)c1		inconclusive: -54.4%
O=C(COC(=O)CNC(=O)c1ccc(Cl)c([N+](=O)[O-])c1)NCC1CCCO1 (centres undefined)		inconclusive: 9.52%
O=C(c1cnc2ccccc2n1)N1CCN(c2ccc(C(F)(F)F)cn2)CC1		inconclusive: 14.3%
COc1ccc(OCc2cc(C(=O)N3CCC(c4ccccc4)CC3)no2)c(Cl)c1		inconclusive: 24%
CCCN(CC(=O)Nc1ccccc1OC)C(=O)CSc1ccc(Br)cc1C	inconclusive: 0.517 µM [rising, full curve, poor fit]	
CCNC(=O)C(=O)NCC(c1cccs1)S(=O)(=O)c1ccc(C)cc1 (centres undefined)		inconclusive: -11.4%
O=C(NCc1ccccc1)C12CC3CC(CC(Cl)(C3)C1)C2		inconclusive: -0.683%
CCOC(=O)Cn1nc(C)n(-c2ccccc2)c1=O		inconclusive: -0.454%
CCn1c(=O)c(=O)[nH]c2cc(C(=O)NCc3ccc(F)cc3)ccc21	inconclusive: 4.11 µM [falling, partial curve, poor fit]	
CCN1/C(=C2\C(=O)N(C)C(=S)N2c2ccccc2)C=Cc2ccccc21		inconclusive: 19.4%
Cc1cc(NC(=O)CSc2nnc(NC(=O)C3CC(=O)N(c4ccccc4)C3)s2)no1 (centres undefined)		inconclusive: -19.3%
Cc1ccc(NC(=O)c2cccc3c2C(=O)N(C2CCCCC2)C3)c(Cl)c1		inconclusive: 17.3%
CN1C(=O)N(C)C2C1N(CN1CCCCC1)C(=O)N2CN1CCCCC1 (centres undefined)		inconclusive: -41.4%
Clc1ccc2nc(COc3ccccc3)[nH]c2c1		inconclusive: -53%
CCOC(=O)N1CCN(Cc2nc(-c3ccccc3)no2)CC1	inconclusive: 20.6 µM [activator, single point]	
Cc1cc(C(=O)Nc2cccc(C)c2C)n(-c2ccccc2)n1		inconclusive: 38.7%

An excerpt of these results, with each value named.
CCCN(CC(=O)Nc1ccccc1OC)C(=O)CSc1ccc(Br)cc1C
  Potency: inconclusive: 0.517 µM [rising, full curve, poor fit]
O=C(NCc1ccccc1)C12CC3CC(CC(Cl)(C3)C1)C2
  lipid storage change, negative = inhibition: inconclusive: -0.683%
Cc1ccc(NC(=O)c2cccc3c2C(=O)N(C2CCCCC2)C3)c(Cl)c1
  lipid storage change, negative = inhibition: inconclusive: 17.3%

The list goes on.

Structure (SMILES)	Potency	lipid storage change, negative = inhibition
CC(C)=N/N=C(\N)SCc1ccccc1		inconclusive: 21.8%
COc1ccc(C(CNC(=O)CNC(=O)c2ccc(F)cc2)N2CCCC2)cc1 (centres undefined)	inconclusive: 29.1 µM [activator, single point]	
COc1ccc(N2CCN(C(=O)c3cc(=O)c4cc(C)ccc4o3)CC2)cc1		inconclusive: 15.3%
Cc1ccc(NS(=O)(=O)c2ccc(-c3ccc(=O)[nH]n3)o2)c(C)c1		inactive: -11.7%
COc1cc(S(=O)(=O)N2CCCCC2)ccc1NC(=O)c1ccc(F)cc1	inconclusive: 0.731 µM [activator, partial curve]	
CC(C)CC(=O)NC(C)C(c1cccs1)N1CCOCC1 (centres undefined)	inconclusive: 0.366 µM [falling, full curve, poor fit]	
COc1ccc(C2/C=C\CN(C(=O)CC(C)C)CC(=O)N2Cc2ccc(F)cc2)cc1 (centres undefined)		inconclusive: 9.02%
CCCC1Cc2c(sc3ncnc(N)c23)CO1 (centres undefined)	inconclusive: 6.51 µM [falling, single point]	
Cc1ccc(C(=O)N2CCN(c3cccc(C)c3C)CC2)cc1S(=O)(=O)N1CCOCC1		inconclusive: -29.6%
CCOCCCNC(=O)/C(C#N)=C/c1ccc(Cl)c([N+](=O)[O-])c1		inconclusive: -44.2%
CN(C)S(=O)(=O)Oc1ccsc1C(=O)Nc1ccc(Br)cc1		inconclusive: -16.5%
CCCCCCNC(=O)CC(NS(=O)(=O)c1ccc(OC)cc1)C(C)C (centres undefined)		inconclusive: 0.738%
COc1cc(/C=C2\CCc3ccccc3C2=O)cc(OC)c1OC	inconclusive: 0.0046 µM [rising, full curve, poor fit]	
COc1cccc(NC(=O)CNC(=O)[C@@H]2Cc3ccccc3CN2C(=O)OC(C)(C)C)c1		inconclusive: 0.761%
COc1ccc(NC(=O)CN(c2ccc(OC)c(Cl)c2)S(=O)(=O)c2ccccc2)cc1		inconclusive: -13.2%
COc1ccc(N=C2SC(C(=O)Nc3ccc(OC)cc3)CC(=O)N2CCN2CCOCC2)cc1 (centres undefined)		inconclusive: 3.17%
Cc1cc(=O)n2c(c1C#N)SC1CCCCC12O (centres undefined)		inconclusive: 3.35%
O=c1c(C(c2ccc(Cl)cc2)c2c(O)nc3n(c2=O)CCCS3)c(O)nc2n1CCCS2		inconclusive: -20%
C=CCNC(=O)C12CCC(C)(C(=O)[C@H]1Br)C2(C)C (some centres undefined)		inconclusive: -24.9%
COc1ccc(CCNS(=O)(=O)c2ccc3c(c2)NC(=O)CO3)cc1OC		inconclusive: 32.9%
COCCNC(=O)c1cccc(OC2CCN(Cc3ccc(F)c(OC)c3)CC2)c1	inconclusive: 2.59 µM [activator, full curve]	
CC(=O)N(CN1C(=O)C2CC=CCC2C1=O)c1cccc(Cl)c1 (centres undefined)	inconclusive: 4.11 µM [activator, full curve]	
O=C(CN1CCN(S(=O)(=O)c2ccc(Cl)cc2)CC1)N1CCCC1		inconclusive: -13.5%
O=C(CCC(=O)NC1CCCCC1)Nc1cccnc1		inconclusive: 81%
